Some of the results follow.
How the values were obtained:
Experiment in all cases: log2 fold change, soluble protein after heating vs DMSO (PISA); higher = thermal stabilisation; K562 lysate, 10 uM; active = over 0.2 and 3.5 SD of the protein, either way, in both replicates (recomputed)
[1] = compound: CN1CC[C@H](c2c(O)cc(O)c3c(=O)cc(-c4ccccc4Cl)oc23)[C@H](O)C1 [alvocidib]
In short: (§1)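 K562 pellets were dounce-homogenised in PBS pH 7.4 with 1 mM MgCl2, and the crude extract at 1 mg/mL protein was treated with 10 μM compound for 30 min. Aliquots were heated for 3 min across 48°C-58°C, pooled, and brought to 0.5% NP-40 at 4°C; soluble protein was the supernatant after 21,000xg for 90 min. Soluble protein was quantified by TMTpro 16plex LC-MS/MS with channel sums equalised, and reported as log2 fold change in thermal stability against DMSO controls, with values from duplicates.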

By UniProt entry, the sequences of proteins in these tests, tags left out. Where a name states a change or a piece, a line headed by the entry shows the natural chain unless it says otherwise.
UniProt P61981: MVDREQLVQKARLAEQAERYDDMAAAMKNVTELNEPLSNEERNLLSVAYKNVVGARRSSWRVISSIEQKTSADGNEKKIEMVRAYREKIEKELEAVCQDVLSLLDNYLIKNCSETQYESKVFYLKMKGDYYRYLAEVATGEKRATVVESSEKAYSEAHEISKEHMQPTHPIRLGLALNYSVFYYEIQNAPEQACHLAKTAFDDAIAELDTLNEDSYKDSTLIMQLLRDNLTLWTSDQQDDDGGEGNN
UniProt Q96DT7: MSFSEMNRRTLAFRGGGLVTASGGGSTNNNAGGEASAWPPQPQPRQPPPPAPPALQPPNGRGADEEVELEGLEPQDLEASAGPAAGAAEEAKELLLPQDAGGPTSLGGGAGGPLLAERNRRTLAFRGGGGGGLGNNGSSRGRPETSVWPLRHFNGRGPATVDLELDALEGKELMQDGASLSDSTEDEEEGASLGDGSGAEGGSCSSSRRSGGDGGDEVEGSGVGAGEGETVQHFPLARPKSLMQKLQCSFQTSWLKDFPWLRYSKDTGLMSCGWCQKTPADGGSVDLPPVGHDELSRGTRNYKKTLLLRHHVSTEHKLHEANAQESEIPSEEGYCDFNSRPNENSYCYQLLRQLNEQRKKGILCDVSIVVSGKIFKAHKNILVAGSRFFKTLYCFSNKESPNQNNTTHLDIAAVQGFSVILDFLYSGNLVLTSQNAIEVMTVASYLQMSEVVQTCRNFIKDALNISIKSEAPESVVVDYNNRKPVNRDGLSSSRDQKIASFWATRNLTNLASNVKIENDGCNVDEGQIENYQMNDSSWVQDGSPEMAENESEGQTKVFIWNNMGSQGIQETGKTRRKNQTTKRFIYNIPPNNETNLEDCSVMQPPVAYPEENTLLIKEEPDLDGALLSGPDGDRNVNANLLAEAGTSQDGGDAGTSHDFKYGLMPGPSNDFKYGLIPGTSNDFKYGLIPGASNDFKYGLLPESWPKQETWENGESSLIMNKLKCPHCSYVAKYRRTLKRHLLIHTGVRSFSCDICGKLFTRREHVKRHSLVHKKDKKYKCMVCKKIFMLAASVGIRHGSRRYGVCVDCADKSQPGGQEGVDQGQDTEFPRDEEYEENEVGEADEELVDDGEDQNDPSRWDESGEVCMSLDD
UniProt Q9H869: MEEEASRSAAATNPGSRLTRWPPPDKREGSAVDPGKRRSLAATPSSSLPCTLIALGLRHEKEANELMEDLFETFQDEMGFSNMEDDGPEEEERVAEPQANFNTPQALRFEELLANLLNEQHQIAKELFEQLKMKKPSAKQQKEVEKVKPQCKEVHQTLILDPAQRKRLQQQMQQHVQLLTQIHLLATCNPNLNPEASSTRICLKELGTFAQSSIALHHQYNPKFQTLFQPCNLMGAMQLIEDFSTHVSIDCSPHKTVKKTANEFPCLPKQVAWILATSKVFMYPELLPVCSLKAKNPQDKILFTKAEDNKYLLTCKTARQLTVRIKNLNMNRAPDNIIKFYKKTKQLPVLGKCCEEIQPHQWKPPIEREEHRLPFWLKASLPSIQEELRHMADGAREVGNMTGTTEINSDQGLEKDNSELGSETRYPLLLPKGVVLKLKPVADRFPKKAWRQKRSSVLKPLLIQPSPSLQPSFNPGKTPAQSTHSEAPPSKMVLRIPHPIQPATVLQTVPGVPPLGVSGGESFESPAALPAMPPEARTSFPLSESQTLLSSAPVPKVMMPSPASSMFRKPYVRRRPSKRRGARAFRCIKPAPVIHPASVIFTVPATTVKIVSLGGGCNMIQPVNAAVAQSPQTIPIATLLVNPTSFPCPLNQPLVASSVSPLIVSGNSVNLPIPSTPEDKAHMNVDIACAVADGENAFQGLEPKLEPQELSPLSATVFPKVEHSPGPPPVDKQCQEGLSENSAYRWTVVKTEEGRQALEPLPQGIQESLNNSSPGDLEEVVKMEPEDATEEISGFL
UniProt O43167: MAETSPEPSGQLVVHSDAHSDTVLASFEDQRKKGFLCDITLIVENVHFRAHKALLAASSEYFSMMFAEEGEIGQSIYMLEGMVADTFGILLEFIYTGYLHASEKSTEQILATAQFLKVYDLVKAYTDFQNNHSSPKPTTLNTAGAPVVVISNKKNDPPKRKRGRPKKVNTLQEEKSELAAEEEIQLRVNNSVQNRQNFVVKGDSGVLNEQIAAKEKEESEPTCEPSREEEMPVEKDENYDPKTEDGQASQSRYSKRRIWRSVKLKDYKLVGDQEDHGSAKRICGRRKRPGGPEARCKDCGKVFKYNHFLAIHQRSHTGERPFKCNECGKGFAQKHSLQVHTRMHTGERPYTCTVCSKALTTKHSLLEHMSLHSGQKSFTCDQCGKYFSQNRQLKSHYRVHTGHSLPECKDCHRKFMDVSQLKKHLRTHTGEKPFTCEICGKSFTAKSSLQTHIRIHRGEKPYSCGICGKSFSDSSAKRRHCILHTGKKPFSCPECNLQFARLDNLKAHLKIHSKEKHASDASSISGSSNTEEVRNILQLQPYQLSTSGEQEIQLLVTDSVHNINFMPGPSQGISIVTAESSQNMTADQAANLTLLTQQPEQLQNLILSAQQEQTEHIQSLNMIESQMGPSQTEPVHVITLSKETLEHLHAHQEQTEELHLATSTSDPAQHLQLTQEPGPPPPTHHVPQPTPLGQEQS
UniProt O95070: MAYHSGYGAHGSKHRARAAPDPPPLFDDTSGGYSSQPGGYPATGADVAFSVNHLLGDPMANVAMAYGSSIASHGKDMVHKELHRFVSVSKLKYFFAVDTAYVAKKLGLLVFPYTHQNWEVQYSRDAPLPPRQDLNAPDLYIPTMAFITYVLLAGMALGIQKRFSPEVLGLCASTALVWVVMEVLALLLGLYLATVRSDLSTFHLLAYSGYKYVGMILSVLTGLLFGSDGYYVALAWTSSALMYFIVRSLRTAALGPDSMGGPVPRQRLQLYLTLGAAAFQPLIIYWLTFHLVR
UniProt P37275: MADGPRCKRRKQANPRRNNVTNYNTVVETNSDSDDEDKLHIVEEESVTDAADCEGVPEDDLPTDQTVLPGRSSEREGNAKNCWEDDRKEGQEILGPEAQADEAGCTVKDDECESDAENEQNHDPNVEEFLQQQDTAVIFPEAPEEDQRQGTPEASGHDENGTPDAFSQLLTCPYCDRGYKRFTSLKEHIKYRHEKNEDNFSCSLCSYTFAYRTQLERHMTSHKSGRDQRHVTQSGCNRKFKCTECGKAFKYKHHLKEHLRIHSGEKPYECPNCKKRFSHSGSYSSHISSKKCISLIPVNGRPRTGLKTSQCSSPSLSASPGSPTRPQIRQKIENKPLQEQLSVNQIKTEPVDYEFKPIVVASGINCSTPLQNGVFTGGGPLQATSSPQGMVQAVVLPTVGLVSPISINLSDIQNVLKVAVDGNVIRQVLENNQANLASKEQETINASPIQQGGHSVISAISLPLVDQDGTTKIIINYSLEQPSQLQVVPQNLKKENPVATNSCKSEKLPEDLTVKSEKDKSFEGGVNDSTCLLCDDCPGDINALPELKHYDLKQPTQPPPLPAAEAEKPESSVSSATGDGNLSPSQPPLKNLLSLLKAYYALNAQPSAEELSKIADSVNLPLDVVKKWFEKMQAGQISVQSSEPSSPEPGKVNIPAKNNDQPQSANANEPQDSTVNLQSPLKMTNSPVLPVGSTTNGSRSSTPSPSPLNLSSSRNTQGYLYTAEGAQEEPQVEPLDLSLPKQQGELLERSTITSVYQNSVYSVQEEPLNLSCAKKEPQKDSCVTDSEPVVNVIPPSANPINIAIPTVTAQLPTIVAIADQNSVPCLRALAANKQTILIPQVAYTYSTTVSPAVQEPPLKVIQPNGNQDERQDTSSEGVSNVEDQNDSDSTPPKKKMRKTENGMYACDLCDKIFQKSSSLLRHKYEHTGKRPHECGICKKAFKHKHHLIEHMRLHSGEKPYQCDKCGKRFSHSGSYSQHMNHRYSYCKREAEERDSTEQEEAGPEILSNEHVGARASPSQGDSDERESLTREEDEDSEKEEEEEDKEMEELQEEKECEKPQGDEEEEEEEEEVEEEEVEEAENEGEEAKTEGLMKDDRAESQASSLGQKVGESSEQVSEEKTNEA
UniProt Q5BJH7: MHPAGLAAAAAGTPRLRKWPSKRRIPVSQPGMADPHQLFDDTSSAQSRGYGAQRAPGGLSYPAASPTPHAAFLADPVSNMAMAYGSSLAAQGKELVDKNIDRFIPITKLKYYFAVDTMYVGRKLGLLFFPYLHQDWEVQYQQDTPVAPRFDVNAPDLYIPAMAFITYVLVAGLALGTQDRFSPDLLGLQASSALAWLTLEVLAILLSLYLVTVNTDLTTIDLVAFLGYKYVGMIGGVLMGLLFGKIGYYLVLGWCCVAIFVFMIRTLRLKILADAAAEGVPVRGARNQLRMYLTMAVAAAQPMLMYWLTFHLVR
UniProt Q9NUA8: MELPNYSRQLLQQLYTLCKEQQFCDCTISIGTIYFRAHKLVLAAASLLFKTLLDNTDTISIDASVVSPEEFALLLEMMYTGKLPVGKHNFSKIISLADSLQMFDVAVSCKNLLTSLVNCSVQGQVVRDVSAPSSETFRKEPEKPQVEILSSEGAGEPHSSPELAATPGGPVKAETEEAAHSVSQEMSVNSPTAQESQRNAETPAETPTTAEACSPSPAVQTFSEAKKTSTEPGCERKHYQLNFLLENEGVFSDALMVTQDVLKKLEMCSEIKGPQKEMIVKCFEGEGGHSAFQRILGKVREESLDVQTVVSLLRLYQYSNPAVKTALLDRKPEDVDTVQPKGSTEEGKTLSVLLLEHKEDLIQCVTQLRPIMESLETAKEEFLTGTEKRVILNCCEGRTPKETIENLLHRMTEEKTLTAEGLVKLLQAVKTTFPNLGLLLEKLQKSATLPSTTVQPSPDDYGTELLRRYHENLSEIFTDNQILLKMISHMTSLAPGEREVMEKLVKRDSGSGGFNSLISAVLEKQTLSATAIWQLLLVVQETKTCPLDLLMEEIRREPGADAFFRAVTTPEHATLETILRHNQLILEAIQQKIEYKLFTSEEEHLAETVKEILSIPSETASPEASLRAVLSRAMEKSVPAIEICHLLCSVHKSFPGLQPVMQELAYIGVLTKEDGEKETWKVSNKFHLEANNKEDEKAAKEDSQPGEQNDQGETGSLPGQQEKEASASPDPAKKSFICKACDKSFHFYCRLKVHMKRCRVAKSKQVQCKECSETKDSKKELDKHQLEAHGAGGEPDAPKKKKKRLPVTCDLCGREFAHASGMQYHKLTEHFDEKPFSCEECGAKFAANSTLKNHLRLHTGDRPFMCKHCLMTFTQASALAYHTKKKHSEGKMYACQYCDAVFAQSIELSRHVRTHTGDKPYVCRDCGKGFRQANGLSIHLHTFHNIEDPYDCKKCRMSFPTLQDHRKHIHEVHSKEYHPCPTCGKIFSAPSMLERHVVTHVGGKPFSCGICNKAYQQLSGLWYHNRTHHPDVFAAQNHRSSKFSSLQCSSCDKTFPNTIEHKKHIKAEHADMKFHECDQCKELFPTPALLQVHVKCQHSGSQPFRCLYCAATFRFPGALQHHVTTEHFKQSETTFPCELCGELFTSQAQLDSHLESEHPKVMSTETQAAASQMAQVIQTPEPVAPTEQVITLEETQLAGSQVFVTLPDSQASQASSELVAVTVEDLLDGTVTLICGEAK
UniProt Q5VVQ6: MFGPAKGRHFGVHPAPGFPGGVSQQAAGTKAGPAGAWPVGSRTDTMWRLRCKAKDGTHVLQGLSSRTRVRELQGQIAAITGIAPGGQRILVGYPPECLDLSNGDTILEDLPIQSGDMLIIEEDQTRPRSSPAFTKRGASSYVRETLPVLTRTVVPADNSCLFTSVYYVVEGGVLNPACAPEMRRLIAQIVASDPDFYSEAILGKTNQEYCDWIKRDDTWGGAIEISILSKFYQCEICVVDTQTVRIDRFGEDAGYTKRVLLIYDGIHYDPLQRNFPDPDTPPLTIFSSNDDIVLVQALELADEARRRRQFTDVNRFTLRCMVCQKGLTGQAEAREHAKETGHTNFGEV
UniProt Q96DA0: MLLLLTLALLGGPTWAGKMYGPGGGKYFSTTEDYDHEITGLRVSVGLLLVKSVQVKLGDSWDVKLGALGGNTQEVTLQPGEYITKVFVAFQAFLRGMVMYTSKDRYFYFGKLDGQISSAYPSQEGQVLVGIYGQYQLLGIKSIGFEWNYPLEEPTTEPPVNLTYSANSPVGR
UniProt P47974: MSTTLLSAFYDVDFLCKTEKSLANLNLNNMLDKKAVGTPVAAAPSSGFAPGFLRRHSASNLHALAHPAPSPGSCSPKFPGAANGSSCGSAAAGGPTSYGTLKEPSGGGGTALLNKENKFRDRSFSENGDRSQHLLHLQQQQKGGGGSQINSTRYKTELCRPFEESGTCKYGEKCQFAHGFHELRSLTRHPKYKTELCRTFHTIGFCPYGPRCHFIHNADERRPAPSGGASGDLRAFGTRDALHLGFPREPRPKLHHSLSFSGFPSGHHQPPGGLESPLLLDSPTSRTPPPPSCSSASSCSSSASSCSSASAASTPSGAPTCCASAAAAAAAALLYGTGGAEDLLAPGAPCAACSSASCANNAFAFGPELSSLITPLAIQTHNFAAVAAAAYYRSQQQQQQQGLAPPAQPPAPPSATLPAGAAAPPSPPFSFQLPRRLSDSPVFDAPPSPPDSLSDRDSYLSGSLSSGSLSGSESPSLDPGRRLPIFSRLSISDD

[2] = compound: CN1CCc2c(c3ccccc3n2Cc2ccc(C(=O)NO)cc2)C1 [Tubastatin A]
In short: as §1

[3] = compound: CNC(=O)C1=CC=CC=C1NC2=NC(=NC=C2Cl)NC3=C(C=C(C=C3)N4CCOCC4)OC
In short: as §1

[4] = compound: CNC(=O)c1ccc(Nc2ncc(C(F)(F)F)c(NCc3nccnc3N(C)S(C)(=O)=O)n2)cc1 [defactinib]
In short: as §1

[5] = compound: CNc1nc(-c2ccc3c(N)n[nH]c3c2)cc(N2C[C@@H](C(=O)NC3CCCCC3)CC[C@H]2C)n1
In short: as §1

[6] = compound: COC(=O)N[C@@H](C)CNc1nccc(-c2cn(C(C)C)nc2-c2cc(Cl)cc(NS(C)(=O)=O)c2F)n1 [encorafenib]
In short: as §1

[7] = compound: COC(=O)[C@H](CCSC)NC(=O)C1=C(C=C(C=C1)NC[C@H](CS)N)C2=CC=CC=C2
In short: as §1

[8] = compound: COc1cc(Nc2ncc3c(n2)-c2ccc(Cl)cc2C(c2c(F)cccc2OC)=NC3)ccc1C(=O)O [alisertib]
In short: as §1

[9] = compound: COc1cc2nc(-c3cc(F)ccc3O)nc(N[C@@H]3CNC[C@H]3C(C)(C)O)c2cc1OC
In short: as §1

[10] = compound: COc1cc2ncnc(Nc3ccc(F)c(Cl)c3)c2cc1OCCCN1CCOCC1 [gefitinib]
In short: as §1

[11] = compound: CS(=O)(=O)CCNCc1ccc(-c2ccc3ncnc(Nc4ccc(OCc5cccc(F)c5)c(Cl)c4)c3c2)o1 [lapatinib]
In short: as §1

[12] = compound: CS(=O)(=O)N1CCN(Cc2cc3nc(-c4cccc5[nH]ncc45)nc(N4CCOCC4)c3s2)CC1 [pictilisib]
In short: as §1

[13] = compound: C[C@@H](Oc1cc(-c2cnn(C3CCNCC3)c2)cnc1N)c1c(Cl)ccc(F)c1Cl [crizotinib]
In short: as §1

[14] = compound: C[C@H](C1=CC=C(C=C1)C(=O)NC2=C3C=CNC3=NC=C2)N
In short: as §1

[15] = compound: C[C@H](Nc1ncnc2nc[nH]c12)c1cc2cccc(Cl)c2c(=O)n1-c1ccccc1 [duvelisib]
In short: as §1

[16] = compound: Cc1cc(Nc2cc(CN3CCOCC3)c3nc(C)c(Cc4ccc(Cl)cc4F)n3n2)n[nH]1 [gandotinib]
In short: as §1

[17] = compound: Cc1cc(Nc2cc(N3CCN(C)CC3)nc(Sc3ccc(NC(=O)C4CC4)cc3)n2)n[nH]1 [tozasertib]
In short: as §1

[18] = compound: Cc1ccc(-n2nc(C(C)(C)C)cc2NC(=O)Nc2ccc(OCCN3CCOCC3)c3ccccc23)cc1 [doramapimod]
In short: as §1

[19] = compound: Cc1ccc(NC(=O)c2ccc(CN3CC[C@H](N(C)C)C3)c(C(F)(F)F)c2)cc1Nc1nccc(-c2cncnc2)n1 [bafetinib]
In short: as §1

[20] = compound: Cc1cccc(CC(=O)N2CCc3c2ccc(-c2cn(C)c4ncnc(N)c24)c3F)n1
In short: as §1

Measured: log2 fold change

YWHAG (UniProt P61981)
inactive: [1] -0.02 | [2] 0.007 | [3] -0.016 | [4] 0.027 | [5] 0.009 | [6] -0.014 | [7] -0.027 | [8] -0.044 | [9] 0.007 | [10] -0.083 | [11] 0.014 | [12] 0.017 | [13] 0.063 | [14] -0.005 | [15] -0.016 | [16] 0.009 | [17] -0.028 | [18] -0.025 | [19] 0.028 | [20] 0.011

ZBTB10 (UniProt Q96DT7)
inactive: [1] -0.069 | [2] -0.006 | [3] -0.032 | [4] 0.051 | [5] -0.008 | [6] -0.026 | [7] 0.028 | [9] 0.003 | [11] 0.09 | [12] -0.05 | [13] -0.056 | [14] -0.016 | [15] -0.016 | [16] 0.089 | [17] 0.076 | [18] 0.011 | [19] 0.093 | [20] 0.189

YY1AP1 isoform 9 (UniProt Q9H869)
inactive: [1] 0.075 | [2] 0.037 | [3] 0.337 | [5] 0.198 | [6] 0.03 | [7] 0.122 | [13] -0.009 | [14] 0.316 | [15] 0.042 | [16] -0.087 | [17] 0.065 | [18] -0.06 | [20] -0.196

ZC3H14 (UniProt Q6PJT7)
inactive: [1] -0.013 | [2] -0.084 | [3] 0.019 | [4] 0.014 | [5] 0.07 | [6] 0.078 | [7] -0.069 | [8] 0.021 | [9] 0.019 | [10] -0.018 | [11] -0.015 | [12] -0.005 | [13] 0.018 | [14] -0.025 | [15] 0.044 | [16] 0.023 | [17] -0.013 | [18] -0.034 | [19] -0.015 | [20] 0.044

ZBTB24 (UniProt O43167)
inactive: [1] 0.047 | [2] 0.089 | [3] -0.068 | [5] 0.078 | [6] -0.081 | [7] -0.117 | [8] -0.059 | [9] -0.062 | [10] -0.253 | [11] -0.032 | [12] -0.055 | [13] -0.013 | [14] 0.116 | [15] -0.016 | [16] 0.135 | [17] 0.046 | [18] 0.006 | [19] 0.034 | [20] 0.002

ZC3H4 (UniProt Q9UPT8)
inactive: [1] -0.04 | [2] -0.035 | [3] 0.004 | [4] 0.012 | [5] 0.049 | [6] 0.076 | [7] 0.033 | [8] -0.066 | [9] -0.011 | [10] -0.009 | [11] -0.02 | [12] -0.004 | [13] -0.017 | [14] 0.017 | [15] 0.008 | [16] -0.012 | [17] 0.012 | [18] -0.012 | [19] 0.004 | [20] 0.031

YIF1A (UniProt O95070)
inactive: [1] 0.038 | [2] -0.096 | [3] 0.032 | [4] 0.025 | [5] -0.031 | [6] 0.034 | [7] 0.024 | [9] -0.02 | [11] -0.036 | [12] 0.128 | [13] 0.017 | [14] 0.023 | [15] 0.034 | [16] 0.061 | [17] -0.022 | [18] -0.051 | [19] -0.066 | [20] -0.005

YBX3 isoform 2 (UniProt P16989)
inactive: [1] -0.039 | [2] -0.043 | [3] 0.01 | [4] 0.077 | [5] -0.144 | [6] 0.032 | [7] -0.06 | [8] -0.084 | [9] -0.008 | [10] 0.056 | [11] 0.103 | [12] 0.153 | [13] 0.061 | [14] 0.074 | [15] 0.052 | [16] 0.033 | [17] 0.005 | [18] -0.008 | [19] -0.027 | [20] 0.233

ZC3H7A (UniProt Q8IWR0)
inactive: [1] 0.172 | [2] -0.106 | [3] 0 | [4] 0.053 | [5] -0.048 | [6] 0.153 | [7] -0.029 | [8] 0.063 | [10] 0.01 | [12] -0.115 | [13] -0.074 | [14] -0.304 | [15] 0.075 | [16] 0.036 | [17] -0.042 | [18] 0.006 | [19] -0.056 | [20] 0.339

ZEB1 isoform 2 (UniProt P37275)
inactive: [1] -0.057 | [2] 0.019 | [3] -0.099 | [4] 0.057 | [5] -0.076 | [9] -0.039 | [11] 0.05 | [12] -0.003 | [13] -0.11 | [14] 0.042 | [15] 0.027 | [16] 0.116 | [18] 0.063 | [19] 0.042 | [20] 0.037

XRN1 (UniProt Q8IZH2)
inactive: [1] 0.026 | [2] 0.009 | [3] -0.017 | [4] 0.086 | [5] -0.008 | [6] 0.023 | [7] 0.064 | [8] -0.006 | [9] 0.064 | [10] -0.017 | [11] 0.005 | [12] -0.123 | [13] 0.048 | [14] -0.009 | [15] -0.114 | [16] -0.031 | [17] 0.103 | [18] -0.032 | [19] 0 | [20] 0.1

YIF1B (UniProt Q5BJH7)
inactive: [1] 0.003 | [2] 0.156 | [3] -0.015 | [4] 0.013 | [5] 0.029 | [6] 0.052 | [7] -0.023 | [8] 0.054 | [9] 0.033 | [10] -0.002 | [11] -0.016 | [12] 0.032 | [13] 0.025 | [14] -0.08 | [15] -0.027 | [16] -0.052 | [17] -0.012 | [18] 0.003 | [19] -0.011 | [20] 0.026

YRDC (UniProt Q86U90)
inactive: [1] 0.015 | [2] -0.006 | [3] 0.044 | [4] -0.023 | [5] 0.043 | [6] 0.003 | [7] -0.1 | [8] -0.014 | [9] -0.004 | [10] -0.001 | [11] -0.028 | [12] -0.038 | [13] -0.047 | [14] -0.039 | [15] 0.018 | [16] 0.055 | [17] 0.027 | [18] 0.035 | [19] 0.022 | [20] 0.01

ZBTB40 (UniProt Q9NUA8)
inactive: [1] 0.09 | [2] -0.089 | [3] 0.03 | [4] -0.032 | [5] 0.048 | [8] -0.187 | [9] -0.038 | [10] -0.246 | [11] 0.022 | [13] 0.036 | [14] -0.249 | [15] 0.018 | [16] 0.219 | [18] -0.02 | [20] 0.004

YOD1 (UniProt Q5VVQ6)
inactive: [1] -0.004 | [2] 0.078 | [3] -0.01 | [4] -0.028 | [5] -0.014 | [6] 0.013 | [7] 0.008 | [8] 0.022 | [9] -0.044 | [10] -0.025 | [11] 0 | [12] -0.026 | [13] -0.023 | [14] -0.017 | [15] -0.038 | [16] -0.005 | [17] -0.003 | [18] 0.015 | [19] -0.062 | [20] 0.021

ZG16B (UniProt Q96DA0)
inactive: [1] -0.07 | [2] 2.23 | [3] -0.075 | [6] -0.056 | [7] 0.272 | [8] 0.062 | [9] 1.4 | [10] 0.239 | [11] 0.232 | [12] 0.254 | [13] 1.37 | [14] 0.346 | [16] 0.057 | [17] 1.8 | [18] 0.048 | [19] 0.215 | [20] 0.763

ZFP36L2 (UniProt P47974)
inactive: [1] -0.027 | [2] -0.23 | [4] -0.005 | [5] 0.051 | [6] 0.069 | [7] -0.104 | [8] -0.155 | [10] 0.301 | [12] -0.085 | [13] 0.003 | [14] 0.014 | [15] 0.229 | [16] 0.069 | [17] -0.123 | [18] -0.048 | [19] -0.154 | [20] 0.276

Taken from the entries so far (2 entries):
YOD1 (UniProt Q5VVQ6)
inactive: [1] -0.004 | [2] 0.078 | [3] -0.01 | [4] -0.028 | [5] -0.014 | [6] 0.013 | [7] 0.008 | [8] 0.022 | [9] -0.044 | [10] -0.025 | [11] 0 | [12] -0.026 | [13] -0.023 | [14] -0.017 | [15] -0.038 | [16] -0.005 | [17] -0.003 | [18] 0.015 | [19] -0.062 | [20] 0.021

ZG16B (UniProt Q96DA0)
inactive: [1] -0.07 | [2] 2.23 | [3] -0.075 | [6] -0.056 | [7] 0.272 | [8] 0.062 | [9] 1.4 | [10] 0.239 | [11] 0.232 | [12] 0.254 | [13] 1.37 | [14] 0.346 | [16] 0.057 | [17] 1.8 | [18] 0.048 | [19] 0.215 | [20] 0.763
